Results are given in words; binding and its absence hold for the method and conditions named.
Columns and labels:
[1] = molecular target: T1, C3G full-length wild type (human, isoform a, residues 4-1077) (human) (UniProt Q13905); assay: AUC + other: dynamic light scattering; sedimentation velocity and DLS of C3G (1.6 µM) or CrkL (3 to 24 µM) alone; 20 mM Tris-HCl, 300 mM NaCl, pH 7.5; mass by the Svedberg equation; both purified
T1 sequence: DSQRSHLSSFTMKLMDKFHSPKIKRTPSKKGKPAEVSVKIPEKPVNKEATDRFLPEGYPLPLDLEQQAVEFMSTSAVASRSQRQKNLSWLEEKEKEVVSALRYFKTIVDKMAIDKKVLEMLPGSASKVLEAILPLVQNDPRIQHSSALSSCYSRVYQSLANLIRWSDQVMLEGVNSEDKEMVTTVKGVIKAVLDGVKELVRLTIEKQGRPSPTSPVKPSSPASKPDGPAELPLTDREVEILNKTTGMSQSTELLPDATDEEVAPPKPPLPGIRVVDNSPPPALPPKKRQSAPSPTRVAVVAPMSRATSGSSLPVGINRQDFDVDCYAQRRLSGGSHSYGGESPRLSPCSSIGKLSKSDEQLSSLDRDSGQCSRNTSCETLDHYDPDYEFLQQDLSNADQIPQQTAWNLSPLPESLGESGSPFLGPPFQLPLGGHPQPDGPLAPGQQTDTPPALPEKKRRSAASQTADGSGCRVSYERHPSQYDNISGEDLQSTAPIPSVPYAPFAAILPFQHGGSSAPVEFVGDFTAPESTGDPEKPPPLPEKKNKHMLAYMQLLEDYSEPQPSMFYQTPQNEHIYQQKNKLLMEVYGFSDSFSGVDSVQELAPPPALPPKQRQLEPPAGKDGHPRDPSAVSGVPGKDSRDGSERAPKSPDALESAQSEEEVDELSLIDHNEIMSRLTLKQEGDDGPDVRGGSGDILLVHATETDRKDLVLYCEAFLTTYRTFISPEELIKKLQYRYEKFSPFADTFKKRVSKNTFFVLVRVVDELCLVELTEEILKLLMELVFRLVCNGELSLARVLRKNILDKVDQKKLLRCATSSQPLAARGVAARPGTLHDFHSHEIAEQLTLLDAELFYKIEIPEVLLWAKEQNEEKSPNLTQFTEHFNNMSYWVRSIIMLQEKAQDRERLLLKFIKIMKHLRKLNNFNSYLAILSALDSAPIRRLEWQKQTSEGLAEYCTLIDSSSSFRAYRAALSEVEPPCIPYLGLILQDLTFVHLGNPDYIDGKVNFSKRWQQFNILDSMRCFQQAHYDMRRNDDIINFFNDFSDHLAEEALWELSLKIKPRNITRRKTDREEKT

Sequences of proteins named here, by UniProt entry; tags and fusion partners are left off. A change or cut given only in a name is not applied to a line headed by its entry.
UniProt P46109: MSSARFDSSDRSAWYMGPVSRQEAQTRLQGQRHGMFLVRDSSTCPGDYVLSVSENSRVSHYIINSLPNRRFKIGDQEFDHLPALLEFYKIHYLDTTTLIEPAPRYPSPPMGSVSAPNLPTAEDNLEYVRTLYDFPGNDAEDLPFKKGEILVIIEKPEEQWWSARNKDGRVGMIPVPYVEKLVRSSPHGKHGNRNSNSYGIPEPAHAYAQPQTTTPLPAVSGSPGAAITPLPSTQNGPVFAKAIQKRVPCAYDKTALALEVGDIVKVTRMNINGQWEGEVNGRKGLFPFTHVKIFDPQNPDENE

[2] = molecular target: GST-CrkL R39K W160S (human) (UniProt P46109); assay: pull-down; 30 µg GST-CrkL (full-length or SH3N) with 30 µg C3G on glutathione-agarose; 20 mM Tris-HCl, 150 mM NaCl, pH 7.5, 0.01% BSA; 30 min, 4 °C; washes with 0.1% Triton X-100; coomassie or western blot; both purified

Binder | binding [1] | binding [2]
C3G full-length wild type (human, isoform a, residues 4-1077) (protein, UniProt Q13905-1 4-1077) DSQRSHLSSFTMKLMDKFHSPKIKRTPSKKGKPAEVSVKIPEKPVNKEATDRFLPEGYPLPLDLEQQAVEFMSTSAVASRSQRQKNLSWLEEKEKEVVSALRYFKTIVDKMAIDKKVLEMLPGSASKVLEAILPLVQNDPRIQHSSALSSCYSRVYQSLANLIRWSDQVMLEGVNSEDKEMVTTVKGVIKAVLDGVKELVRLTIEKQGRPSPTSPVKPSSPASKPDGPAELPLTDREVEILNKTTGMSQSTELLPDATDEEVAPPKPPLPGIRVVDNSPPPALPPKKRQSAPSPTRVAVVAPMSRATSGSSLPVGINRQDFDVDCYAQRRLSGGSHSYGGESPRLSPCSSIGKLSKSDEQLSSLDRDSGQCSRNTSCETLDHYDPDYEFLQQDLSNADQIPQQTAWNLSPLPESLGESGSPFLGPPFQLPLGGHPQPDGPLAPGQQTDTPPALPEKKRRSAASQTADGSGCRVSYERHPSQYDNISGEDLQSTAPIPSVPYAPFAAILPFQHGGSSAPVEFVGDFTAPESTGDPEKPPPLPEKKNKHMLAYMQLLEDYSEPQPSMFYQTPQNEHIYQQKNKLLMEVYGFSDSFSGVDSVQELAPPPALPPKQRQLEPPAGKDGHPRDPSAVSGVPGKDSRDGSERAPKSPDALESAQSEEEVDELSLIDHNEIMSRLTLKQEGDDGPDVRGGSGDILLVHATETDRKDLVLYCEAFLTTYRTFISPEELIKKLQYRYEKFSPFADTFKKRVSKNTFFVLVRVVDELCLVELTEEILKLLMELVFRLVCNGELSLARVLRKNILDKVDQKKLLRCATSSQPLAARGVAARPGTLHDFHSHEIAEQLTLLDAELFYKIEIPEVLLWAKEQNEEKSPNLTQFTEHFNNMSYWVRSIIMLQEKAQDRERLLLKFIKIMKHLRKLNNFNSYLAILSALDSAPIRRLEWQKQTSEGLAEYCTLIDSSSSFRAYRAALSEVEPPCIPYLGLILQDLTFVHLGNPDYIDGKVNFSKRWQQFNILDSMRCFQQAHYDMRRNDDIINFFNDFSDHLAEEALWELSLKIKPRNITRRKTDREEKT | no binding (tested: 1.6 µM) | 
Src-phosphorylated C3G (pC3G), wild type (protein, UniProt Q13905-1 4-1077, phosphotyrosines (phosphorylated in vitro by Src; sites not stated)) DSQRSHLSSFTMKLMDKFHSPKIKRTPSKKGKPAEVSVKIPEKPVNKEATDRFLPEGYPLPLDLEQQAVEFMSTSAVASRSQRQKNLSWLEEKEKEVVSALRYFKTIVDKMAIDKKVLEMLPGSASKVLEAILPLVQNDPRIQHSSALSSCYSRVYQSLANLIRWSDQVMLEGVNSEDKEMVTTVKGVIKAVLDGVKELVRLTIEKQGRPSPTSPVKPSSPASKPDGPAELPLTDREVEILNKTTGMSQSTELLPDATDEEVAPPKPPLPGIRVVDNSPPPALPPKKRQSAPSPTRVAVVAPMSRATSGSSLPVGINRQDFDVDCYAQRRLSGGSHSYGGESPRLSPCSSIGKLSKSDEQLSSLDRDSGQCSRNTSCETLDHYDPDYEFLQQDLSNADQIPQQTAWNLSPLPESLGESGSPFLGPPFQLPLGGHPQPDGPLAPGQQTDTPPALPEKKRRSAASQTADGSGCRVSYERHPSQYDNISGEDLQSTAPIPSVPYAPFAAILPFQHGGSSAPVEFVGDFTAPESTGDPEKPPPLPEKKNKHMLAYMQLLEDYSEPQPSMFYQTPQNEHIYQQKNKLLMEVYGFSDSFSGVDSVQELAPPPALPPKQRQLEPPAGKDGHPRDPSAVSGVPGKDSRDGSERAPKSPDALESAQSEEEVDELSLIDHNEIMSRLTLKQEGDDGPDVRGGSGDILLVHATETDRKDLVLYCEAFLTTYRTFISPEELIKKLQYRYEKFSPFADTFKKRVSKNTFFVLVRVVDELCLVELTEEILKLLMELVFRLVCNGELSLARVLRKNILDKVDQKKLLRCATSSQPLAARGVAARPGTLHDFHSHEIAEQLTLLDAELFYKIEIPEVLLWAKEQNEEKSPNLTQFTEHFNNMSYWVRSIIMLQEKAQDRERLLLKFIKIMKHLRKLNNFNSYLAILSALDSAPIRRLEWQKQTSEGLAEYCTLIDSSSSFRAYRAALSEVEPPCIPYLGLILQDLTFVHLGNPDYIDGKVNFSKRWQQFNILDSMRCFQQAHYDMRRNDDIINFFNDFSDHLAEEALWELSLKIKPRNITRRKTDREEKT |  | no binding
